{"source": "the supplement of paper PMC5949888", "note": "Most values lie at the floor of the assay. Slopes are relative: functional sequences can read slightly below zero.", "data": [{"test_system": "Saccharomyces cerevisiae PS128 hsf1 delta, HSF1(1-493) fusion", "assay": "growth estimate (transactivation domain function in HSF1 fusion, heat-shock survival) (a.u. (slope of normalised read count over time)); higher = stronger growth at 37°C, i.e. more transactivation activity", "details": "library: random library", "values": [{"substance": "KITLIRLETGRNLGDRSFVS", "growth estimate": "< -0.25"}, {"substance": "KITWVARCPVYAQRGRL", "growth estimate": -0.231}, {"substance": "KIVERLTMIQEWKLSSRPTS", "growth estimate": "< -0.25"}, {"substance": "KIY", "growth estimate": "< -0.25"}, {"substance": "KIYGLVGVPNGNRKVITQLA", "growth estimate": "< -0.25"}, {"substance": "KIYNNATGAEQSRDVSALRG", "growth estimate": "< -0.25"}, {"substance": "KIYPATGHKGHLASRVIKRC", "growth estimate": "< -0.25"}, {"substance": "KKAHATNCPGRRSLTRRANA", "growth estimate": -0.243}, {"substance": "KKAIGFVVPMRQGRLASPDR", "growth estimate": "< -0.25"}, {"substance": "KKAKKCGTTVSHLLCYRCSV", "growth estimate": "< -0.25"}, {"substance": "KKCSKGRTHRLHRFHRNFLL", "growth estimate": -0.243}, {"substance": "KKCSVMCRGLSRK", "growth estimate": "< -0.25"}, {"substance": "KKDRASGSFPVCRPRWPGTS", "growth estimate": "< -0.25"}, {"substance": "KKGAPFSLRFYRFRSWSTE", "growth estimate": -0.231}, {"substance": "KKLIARGQRGEGTW", "growth estimate": "< -0.25"}, {"substance": "KKLLRRDWMTQK", "growth estimate": "< -0.25"}, {"substance": "KKRACRDFRIHISEV", "growth estimate": "< -0.25"}, {"substance": "KKSLLSVLRTGTFKLQRVGL", "growth estimate": "< -0.25"}, {"substance": "KKVRSSKTHSLAPLNVTQTT", "growth estimate": "< -0.25"}, {"substance": "KLAAQLSVVSALKATIMAMV", "growth estimate": "< -0.25"}, {"substance": "KLDCSKLVLR", "growth estimate": "< -0.25"}, {"substance": "KLDGCGLRGIGSMGMVM", "growth estimate": "< -0.25"}, {"substance": "KLEPQAYYKS", "growth estimate": "< -0.25"}, {"substance": "KLF", "growth estimate": "< -0.25"}, {"substance": "KLGPAHYQFNTYLLRYDELD", "growth estimate": "< -0.25"}, {"substance": "KLGTQR", "growth estimate": "< -0.25"}, {"substance": "KLIDADLH", "growth estimate": "< -0.25"}, {"substance": "KLKPSLVHRAHMSWRAVKGA", "growth estimate": "< -0.25"}, {"substance": "KLLEKRAGGPSITRGFQGRT", "growth estimate": -0.192}, {"substance": "KLLGGVSNPDTHDTFSPGPM", "growth estimate": "< -0.25"}, {"substance": "KLLHDMSRVGP", "growth estimate": "< -0.25"}, {"substance": "KLLLVIAYPVEHHVPQLQAT", "growth estimate": "< -0.25"}, {"substance": "KLLMSSRLLGWPLTLCTVAR", "growth estimate": "< -0.25"}, {"substance": "KLLPKRSRPGAPVVGHTLRF", "growth estimate": "< -0.25"}, {"substance": "KLLSDLTCLRLINGRPLKYN", "growth estimate": "< -0.25"}, {"substance": "KLLVIQQFTVGFYRAVRSTE", "growth estimate": "< -0.25"}, {"substance": "KLMRNSRHRHQRKWAAGSFR", "growth estimate": "< -0.25"}, {"substance": "KLPEAASFRRGHHVWE", "growth estimate": "< -0.25"}, {"substance": "KLR", "growth estimate": "< -0.25"}, {"substance": "KLRGRQGCKTV", "growth estimate": "< -0.25"}, {"substance": "KLRRCGDSRWRRRLPLTRAL", "growth estimate": "< -0.25"}, {"substance": "KLSTSVSGHLRAAHFTNPAL", "growth estimate": "< -0.25"}, {"substance": "KLVGISSTIIGTAAKVVHAS", "growth estimate": "< -0.25"}, {"substance": "KLYANEGVRLSATSSRFGFP", "growth estimate": "< -0.25"}, {"substance": "KLYISAQASMLSSHFRRSSQ", "growth estimate": "< -0.25"}, {"substance": "KMDSTRGFRKLARREAPASS", "growth estimate": "< -0.25"}, {"substance": "KMGLTTRSHSR", "growth estimate": "< -0.25"}, {"substance": "KMMYAASRIGDMEATIRFQC", "growth estimate": "< -0.25"}, {"substance": "KMS", "growth estimate": "< -0.25"}, {"substance": "KMSRCISV", "growth estimate": "< -0.25"}, {"substance": "KMVWFGVIVSEVTS", "growth estimate": "< -0.25"}, {"substance": "KNCGRRSFKQRVTIVNPGLA", "growth estimate": "< -0.25"}, {"substance": "KNFMVFFFSNPGGFCTAIDW", "growth estimate": "< -0.25"}, {"substance": "KNIDAAWRLLAKANANGNRP", "growth estimate": "< -0.25"}, {"substance": "KNLELSPDYCRQACTHFCSC", "growth estimate": "< -0.25"}, {"substance": "KNLRLVTVLRHL", "growth estimate": "< -0.25"}, {"substance": "KNMLVYSTGR", "growth estimate": "< -0.25"}, {"substance": "KNNAWPACSTVNCGYRLLAA", "growth estimate": "< -0.25"}, {"substance": "KNPDERKTEGTNSGSFQYRF", "growth estimate": "< -0.25"}, {"substance": "KNPQLLRCQN", "growth estimate": "< -0.25"}, {"substance": "KNQRIIGRSRLDRSAANAYT", "growth estimate": "< -0.25"}, {"substance": "KNRASHCRVNYSGISIA", "growth estimate": "< -0.25"}, {"substance": "KNYNPAGDAL", "growth estimate": "< -0.25"}, {"substance": "KPA", "growth estimate": "< -0.25"}, {"substance": "KPCAHEMGDSPETLPLKFDG", "growth estimate": "< -0.25"}, {"substance": "KPCQSSGVWIARFKT", "growth estimate": "< -0.25"}, {"substance": "KPGSAPGIFVNKLRYVCALM", "growth estimate": "< -0.25"}, {"substance": "KPHIVITGAMEGSSRATVRL", "growth estimate": "< -0.25"}, {"substance": "KPISINRPPPPSLQRPVQPF", "growth estimate": "< -0.25"}, {"substance": "KPKGSPIGYSCSHTEAI", "growth estimate": "< -0.25"}, {"substance": "KPMGTISICKYQCRVRVEYT", "growth estimate": "< -0.25"}, {"substance": "KPRILLYRDHQLPIRVYMPV", "growth estimate": "< -0.25"}, {"substance": "KPSDRHHLGS", "growth estimate": "< -0.25"}, {"substance": "KPSRHSSYGTLESAPAPGER", "growth estimate": "< -0.25"}, {"substance": "KPTGVRTLPLLRADVPERQT", "growth estimate": "< -0.25"}, {"substance": "KPTWLPRVLKVSRGGFHSSH", "growth estimate": "< -0.25"}, {"substance": "KPVAS", "growth estimate": "< -0.25"}, {"substance": "KPVDSVRHSPRGPAKVWT", "growth estimate": "< -0.25"}, {"substance": "KPVRSGPGLGKRLGEH", "growth estimate": "< -0.25"}, {"substance": "KPYGNDWPTVRCS", "growth estimate": "< -0.25"}, {"substance": "KQAGLCYMRPVSHADAEVGD", "growth estimate": "< -0.25"}, {"substance": "KQCLESVTGSVSRCRGGKSL", "growth estimate": "< -0.25"}, {"substance": "KQHGTRRLEPVKAEARRGHA", "growth estimate": "< -0.25"}, {"substance": "KQKPGRTNHNFPVFGCE", "growth estimate": "< -0.25"}, {"substance": "KQSRSRVRRGTSRGRLHREG", "growth estimate": "< -0.25"}, {"substance": "KQT", "growth estimate": "< -0.25"}, {"substance": "KQTISSVKEFGLPHVH", "growth estimate": "< -0.25"}, {"substance": "KQTTKYKFR", "growth estimate": "< -0.25"}, {"substance": "KRANVQIIPLFGGSTSWTAE", "growth estimate": "< -0.25"}, {"substance": "KRCMRTTRRCQTLANVRALS", "growth estimate": "< -0.25"}, {"substance": "KRDEGY", "growth estimate": "< -0.25"}, {"substance": "KRDRWPGAGYGRYVDQPIRL", "growth estimate": -0.0414}, {"substance": "KRENVRRSYERA", "growth estimate": "< -0.25"}, {"substance": "KRGASKLQWARVRQPCRQIK", "growth estimate": "< -0.25"}, {"substance": "KRGDSRSS", "growth estimate": "< -0.25"}, {"substance": "KRGGIEPSIMYALTRSRTGH", "growth estimate": "< -0.25"}, {"substance": "KRGTRG", "growth estimate": "< -0.25"}, {"substance": "KRIRSSIWHCCVDFLWYNKP", "growth estimate": "< -0.25"}]}]}
